Data from PMC5751800, “Functional characterization of chitin-binding lectin from Solanum integrifolium containing anti-fungal and insecticidal activities” (BMC Plant Biology, 2018).

Tested on: T1, CBL (chitin-binding lectin from S. integrifolium; recombinant CBL)
T1 construct: natural CBL from fruit 30 and 20 kDa on SDS-PAGE, about 66 kDa non-reducing
Experiment: hemagglutination inhibition, trypsinized human erythrocytes
Design: species or system Solanum aethiopicum
Details: minimum concentration for complete inhibition of hemagglutination; PBS, room temperature, 4% RBC; recombinant lectin by context (methods say only lectin samples)

Compound | ^aMIC [mM]
N[C@H]1C(O)O[C@H](CO)[C@@H](O)[C@@H]1O (stereo partly drawn) [D-glucosamine] | 100
CC(=O)N[C@H]1C(O)O[C@H](CO)[C@@H](O)[C@@H]1O (stereo partly drawn) [GlcNAc] | 3.12
CC(=O)N[C@H]1C(O)O[C@H](CO)[C@H](O)[C@@H]1O (stereo partly drawn) [GalNAc] | 25
